PubChem BioAssay AID504793, Drosophila RNAi Screening Center | 2011

- Purpose: 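Knock-downs allowing continued mitosis even though DNA is damaged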 (primary screen)
- Cells: Drosophila S2R+ cells
- Knock-down reagent: long dsRNA against Drosophila genes, about 0.25 µg dsRNA per well
- Time to read-out: 4 days of dsRNA, then 4 hours of drug before read-out
- Treatment: doxorubicin 0.5 µM for 4 hours to cause double-strand breaks, in cells also given a low, harmless dose of dsRNA against nbs to sensitise the assay
- Measured: 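Mitotic index as the number of phospho-histone H3-positive cells in each well following doxorubicin, given as raw counts without normalisation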
- Reading the numbers: mitotic cells: higher = more cells in mitosis, weaker G2 arrest
- Hit rule: 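a call needs confirmation in secondary tests, with other dsRNAs and a check of mitotic timing without damage, not just a high primary count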
- Meaning of the calls: active = confirmed in follow-up tests; inactive = not confirmed
The deposit covers about 23,000 reagents; below is an unselected part of those with a known target gene and a result. Over the whole deposit, 62 (0.27%) are marked active. 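Calls come from follow-up tests whose scores are not deposited, so confirmed genes may have low counts here; counts are not normalised per plate.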 The raw values are shown without normalisation. The numbers tell different reagents against one gene apart. Names joined by + are all predicted targets of the reagent.

target gene | dsRNA no. | mitotic cells, replicate 1 | call
Fbl6 | 1 | 10 | inactive
Fbl6 | 2 | 8 | inactive
CG10638 | 1 | 5 | inactive
CG10638 | 2 | 3 | inactive
Zw10 | 1 | 4 | inactive
Zw10 | 2 | 3 | inactive
CG10839 | 1 | 7 | inactive
UGP | 1 | 13 | inactive
Tsp47F | 1 | 8 | inactive
AMPKalpha | 1 | 33 | inactive
AMPKalpha | 2 | 7 | inactive
Ir75b | 1 | 5 | inactive
CG2898 | 1 | 11 | inactive
CG4866 | 1 | 11 | inactive
Gmd | 1 | 5 | inactive
Gmd | 2 | 6 | inactive
tbrd-3 | 1 | 7 | inactive
tbrd-3 | 2 | 4 | inactive
Epp | 1 | 8 | inactive
Epp | 2 | 6 | inactive
CG6878 | 1 | 9 | inactive
Pi3K68D | 1 | 9 | inactive
Pi3K68D | 2 | 6 | inactive
Uba2 | 1 | 2 | inactive
Lkr | 1 | 5 | inactive
CG13155 | 1 | 5 | inactive
mei-218 + mei-217 | 1 | 8 | inactive
Eig71Ek | 1 | 5 | inactive
ND-13B | 1 | 3 | inactive
ND-13B | 2 | 4 | inactive
Obp22a | 1 | 6 | inactive
CG3625 | 1 | 8 | inactive
Ubqn | 1 | 1 | inactive
Ubqn | 2 | 5 | inactive
yellow-d2 | 1 | 7 | inactive
Dsor1 | 1 | 5 | inactive
Dsor1 | 2 | 4 | inactive
CG12204 | 1 | 4 | inactive
CG12204 | 2 | – | inactive
syd | 1 | 6 | inactive
syd | 2 | 8 | inactive
Mat1 | 1 | 3 | inactive
Mat1 | 2 | 4 | inactive
mRpL35 | 1 | 4 | inactive
CG3652 | 1 | 3 | inactive
